39 molecules from PubChem BioAssay AID2685 (National Center for Advancing Translational Sciences (NCATS), 2010) can be followed below.

Each structure is given as a SMILES string. Some of the results follow. Further columns of the screen follow, without active or inactive calls. Most of these compounds were active or inconclusive in the main read-out, so they are no random draw. The note in brackets gives the kind of curve behind each potency; many fits are weak.

The nature of the test: qHTS Assay for Lipid Storage Modulators in Drosophila S3 Cells.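 For cell number change: cells counted by Cell Tracker Red CMTPX staining in the red channel.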 To be noted: BODIPY lipid droplet fluorescence, 18-24 h; for cell number change: measured here: cell count max response, cells fed with added oleic acid. An outline of the steps:
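Drosophila S3 cells got compounds at several concentrations plus oleic acid (400 uM solution). Laser-scanning cytometry with 488 nm excitation read lipid droplets at 500-530 nm and cells at 575-640 nm. Percent activity was relative to 20 uM Triacsin C.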

The mark [1] stands for this setting: measured here: cell number channel AC50, cells fed with added oleic acid.
[2] abbreviates: measured here: lipid fluorescence (Fed channel) AC50, cells fed with added oleic acid.

On to `COCC(=O)NC1CC2CCCC(C1)N2Cc1ccccc1` (stereo not drawn), for which the cell number change is -6.04%. Regarding `O=C(Nc1ccc(OCc2ccccc2)cc1)c1ccccc1`, the cell number change was -30.7%. In addition, the AC50 under setting [1] was 16.4 µM [falling, single point]. Regarding `O=C(O)c1cnn(-c2ccccc2)c1-c1ccccc1`, the cell number change is -10.1%. In addition, the AC50 under setting [2] is 23.1 µM [falling, partial curve]. In the case of `O=C(CCS(=O)(=O)c1ccccc1)Nc1ccc2c(c1)C(=O)NC2=O`, the cell number change is -5.32%. Moreover, under setting [1], the AC50 is 2.59 µM [falling, single point]. Under setting [2], the AC50 was 0.00461 µM [falling, full curve, poor fit].

Take `COc1ccccc1-c1ccc2nnc(SC)n2n1`: the cell number change is 19.7%. The AC50 under setting [2] was 6.51 µM [falling, single point]. Regarding `CCn1c(=O)c(C(=O)NNC(=O)c2ccccc2F)c(O)c2ccccc21`, the cell number change is -31%. Besides, under setting [2], the AC50 was 29.1 µM [falling, single point]. Turning to `NC(=O)c1sc2nc3c(c(-c4ccco4)c2c1N)CCCC3`, the cell number change worked out at 8.89%. Moreover, the AC50 under setting [2] was 32.6 µM [rising, single point].

Consider `COc1cc(C(=O)Nc2cccc(NC(=O)c3ccccc3)c2)cc(OC)c1OC`, for which the cell number change was -23.3%. As for `CC1CCc2nc3ccc(S(=O)(=O)N4CCC(C(=O)NC(C)c5ccccc5)CC4)cc3c(C(=O)O)c2C1` (stereo not drawn), under setting [1], the AC50 was 0.103 µM [rising, full curve, poor fit]. Turning to `C/C(=N\Nc1cc(-c2ccccc2)nc(-c2ccccc2)n1)c1ccc(O)c(C)c1`, the cell number change was -25.9%. Also, the AC50 under setting [2] is 29.1 µM [falling, single point].

With `O=C(Nc1ccc(S(=O)(=O)N2CCN(Cc3ccccc3)CC2)cc1)c1cnccn1`, the cell number change was -14.9%. Consider `Cc1cccc(C(=O)Nc2cccc(Br)c2)c1[N+](=O)[O-]`, for which the cell number change stood at 20.1%. For the same molecule, under setting [2], the AC50 is 6.51 µM [rising, partial curve, poor fit]. For the molecule `CCOc1ccccc1N(C)C(=O)C1CCN(S(=O)(=O)c2cccc3nonc23)CC1`, the cell number change worked out at 2.99%. Further, under setting [2], the AC50 was 2.91 µM [rising, single point]. As to `O=C(NCc1ccccc1)c1ccc(OCC2CCCO2)cc1` (stereo not drawn), the cell number change was -100%. In addition, under setting [1], the AC50 is 6.51 µM [falling, partial curve]. In addition, the AC50 under setting [2] is 2.06 µM [rising, partial curve]. For `CCCCn1c(N)c(N(CCC(C)C)C(=O)c2ccccc2C)c(=O)[nH]c1=O`, the cell number change was determined as 3.63%. On the same count and under the same terms, under `CC(C)(C)c1ccc(C(=O)Nc2nnc(SCC(=O)NCC3CCCO3)s2)cc1` (stereo not drawn) stands -13.6%. Consider `CCOc1cc(Cl)c(S(=O)(=O)NCCCn2ccnc2)cc1Cl`, for which the cell number change is -38.7%. The AC50 under setting [1] was 36.6 µM [falling, partial curve, poor fit]. `Cc1ccc(NC(=O)CSc2nnc(CNC(=O)C34CC5CC(CC(C5)C3)C4)n2-c2ccc(F)cc2)cc1`: the cell number change was -48%. The AC50 under setting [1] was 16.4 µM [falling, single point]. Further, the AC50 under setting [2] was 16.4 µM [falling, partial curve]. Consider `CCC(=O)NNC(=O)c1cc(COc2cc(Cl)cc(Cl)c2)on1`, for which the cell number change turned out to be 62.2%. For the same molecule, the AC50 under setting [1] was 20.6 µM [rising, single point]. On to `Cc1cccc(OCC(=O)Nc2ccccc2C(=O)N2CCOCC2)c1`, for which the AC50 under setting [2] was 6.51 µM [falling, single point]. Take `Cc1cc(F)ccc1S(=O)(=O)NCC(c1ccc2c(c1)OCO2)N1CCOCC1` (stereo not drawn): the cell number change is -14.4%. As to `COCCCN1C(=O)/C(=C/c2ccc(CNS(=O)(=O)c3ccccc3)o2)C(C(=O)OC)=C1C`, the cell number change was -23.4%. Also, under setting [2], the AC50 was 0.00461 µM [falling, full curve, poor fit].

On to `Cc1ccc(S(=O)(=O)NC2CC(=O)N(c3ccc4c(c3)OCCO4)C2)cc1` (stereo not drawn), for which, under setting [2], the AC50 is 0.00411 µM [rising, full curve, poor fit]. For the molecule `Cc1ccc(NC(=O)CN2C(=O)NC(C)(c3ccc(Cl)cc3)C2=O)cc1S(=O)(=O)N1CCOCC1` (stereo not drawn), the cell number change was -12.5%. In addition, the AC50 under setting [2] is 0.82 µM [rising, partial curve]. With `CCN(C(=O)c1ccc(S(=O)(=O)N2CCCC2)cc1)C1CCS(=O)(=O)C1` (stereo not drawn), the cell number change is -12.3%. For the same molecule, the AC50 under setting [2] was 10.3 µM [falling, partial curve].

`COc1ccc(S(=O)(=O)Cc2ccc(C(=O)NCC(OC)OC)o2)cc1`: the cell number change came to 29.7%. With `CC1CN(C(=O)c2cc(S(=O)(=O)N3CCCCC3)ccc2Cl)CC(C)O1` (stereo not drawn), the cell number change was -7.46%. Also, the AC50 under setting [2] is 1.16 µM [rising, partial curve]. For the molecule `CCn1c2ccccc2c2cc(NC(=O)CSc3nnc(-c4cccc(F)c4)o3)ccc21`, the cell number change amounted to 42.2%. Further, the AC50 under setting [1] was 0.92 µM [rising, partial curve, poor fit]. Further, the AC50 under setting [2] is 6.51 µM [rising, single point]. Regarding `C[n+]1ccc(/C=C/c2cccs2)cc1`, the cell number change stood at 22.9%. Under setting [2], the AC50 was 0.00517 µM [rising, full curve, poor fit]. On to `O=C(CSc1n[nH]c(-c2ccccc2)n1)NC1CCCCC1`, for which the cell number change is -34.7%. The AC50 under setting [1] is 29.1 µM [falling, single point]. Consider `O=C(CN1CCN(Cc2ccc3c(c2)OCO3)CC1)N1CCc2[nH]c3ccccc3c2C1`, for which the cell number change was -0.97%. For `CN(C)c1ccc(-c2n(C)c3ccccc3[n+]2C)cc1`, the cell number change was -75.1%. Moreover, the AC50 under setting [1] was 13 µM [falling, partial curve]. Further, the AC50 under setting [2] was 29.1 µM [falling, single point].

As to `O=C(NCc1ccc2c(c1)OCO2)c1ccc(COc2cc(Cl)ccc2Cl)o1`, the cell number change turned out to be 72.8%. Under setting [1], the AC50 is 2.31 µM [rising, partial curve]. For the same molecule, under setting [2], the AC50 was 2.06 µM [rising, partial curve].

Turning to `CS(=O)(=O)Nc1cccc(C2=NN(C(=O)c3cccc(F)c3)C(c3cccs3)C2)c1` (stereo not drawn), the cell number change is -9.72%. For `Cc1ccsc1/C=c1\sc2ncnn2c1=O`, the cell number change was -2.95%. In addition, under setting [1], the AC50 was 6.51 µM [rising, single point]. Besides, the AC50 under setting [2] was 29.1 µM [rising, single point].

On to `COC(=O)COC(=O)c1ccc(Oc2nc(OC)nc(N(C)C)n2)cc1`, for which the cell number change was 36.5%. Also, the AC50 under setting [1] is 1.3 µM [rising, full curve, poor fit]. Regarding `CCC(C)c1ccc(NC(=O)COC(=O)C2=COCCO2)cc1` (stereo not drawn), the cell number change was 1.27%. The AC50 under setting [2] was 0.0058 µM [rising, full curve, poor fit]. `Cc1cc(C)nc(SCc2ccc(C(=O)O)o2)n1`: the cell number change was found to be 13.2%. The AC50 under setting [2] was 10.3 µM [falling, partial curve]. Take `O=C(Nc1ccc2c(c1)OCO2)c1cc(-c2ccc(O)cc2)on1`: the cell number change was determined as 16.7%. In addition, the AC50 under setting [2] was 18.4 µM [rising, single point].
